Source: patent US20260217787A1
Results are given in words; binding and its absence hold for the method and conditions named. Some entries that bind do so weakly or less than the wild type. For part of these data: Tags and fused reporters may be left off the sequences shown.

Assays:
[1] = molecular target: TnCAD-TBR3 variant A (Trichoplusia ni); test: gel filtration (figure legend)
[2] = molecular target: TnCAD-TBR3 variant B (Trichoplusia ni); test: gel filtration (figure legend)
[3] = molecular target: TnCAD TBR3 variant (Trichoplusia_ni_Cadherin_TBR3_CR9-TMD), TVMV protease cleaved / purified (Trichoplusia ni); test: pull-down, gel filtration and Biacore (figure legend)
[4] = molecular target: TnCAD TBR3 variant (Trichoplusia_ni_Cadherin_TBR3_CR9-TMD), TVMV protease cleaved / purified (Trichoplusia ni); test: NiNTA pull-down through the C-terminal His tag of the receptor, SDS-PAGE
[5] = molecular target: TnCAD TBR3 variant (Trichoplusia_ni_Cadherin_TBR3_CR9-TMD), TVMV protease cleaved / purified (Trichoplusia ni); test: ligand blot
[6] = molecular target: MBP-fusion protein of TnCAD TBR3 variant (Trichoplusia ni); test: ligand blot
[7] = molecular target: TnCAD TBR3 variant (Trichoplusia_ni_Cadherin_TBR3_CR9-TMD), TVMV protease cleaved / purified (Trichoplusia ni); test: gel filtration (HiLoad16/60 Superdex200), SDS-PAGE of the peak fractions
[8] = molecular target: TnCAD-TBR3 variant A (Trichoplusia ni); test: gel filtration (superdex75 or superdex200) of a 1.2:1 molar mixture
[9] = molecular target: TnCAD-TBR3 variant B (Trichoplusia ni); test: as above

Measured: binding

Cry1Ab tryptic core (from UniProt P0A370 29-607) (ligand)
binds: all assays above
